Reference: patent US20200347135A1
No constants are given. Whether binding was seen depends on the method and setting. Some binding calls cover weakened binding; strength is not graded here.

Protein sequences, listed by entry. Tags and fused reporters are not part of them. Lines headed by an entry give the natural chain unless they say otherwise; changes in a name come on top.
UniProt Q15116: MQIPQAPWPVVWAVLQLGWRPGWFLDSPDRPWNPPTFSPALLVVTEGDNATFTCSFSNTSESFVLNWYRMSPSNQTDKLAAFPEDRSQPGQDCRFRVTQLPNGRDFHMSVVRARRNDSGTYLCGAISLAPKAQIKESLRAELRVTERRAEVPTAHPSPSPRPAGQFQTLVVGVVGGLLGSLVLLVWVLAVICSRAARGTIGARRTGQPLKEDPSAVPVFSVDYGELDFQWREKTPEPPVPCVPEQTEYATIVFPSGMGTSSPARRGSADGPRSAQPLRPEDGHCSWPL

B1: A31543 sdAb (VHH)
VHH: QVQLVESGGGKVQPGGSLRLSCAASGGTLDYYAIGWFRQAPGKEREAVSCISSSDGSTYYADSVKGRFTISRDNAKNTVYLQMNSLKPGDTAVYHCATDRACGSSWLGAESWAQGTQVTVSS
B2: AS15883 sdAb (VHH)
VHH: QVHLMESGGGSVQAGGSLTLSCAASVFTDSNYCMAWFRQVPGKEREGVAIIDRYGGTMYKDSVKGRFTISKDTAKNILYLQMNSLKLEDTAMYYCAAAGYRGSSCDADSGYWGQGTQVTVSS
B3: AS15892 sdAb (VHH)
VHH: QIQLVESGGGSVQAGGSLRLSCAASGFTDSSYCGAWFRQVPGKEREGVAIIDRYGGTMYKDSVKGRFTISKDTAKNILYLQMNSLKLEDTAMYYCAAAEYRGSSCDAESGYWGQGTQVTVSS
B4: AS15899 sdAb (VHH)
VHH: QVQLVESGGGSVQAGGSLRLSCAASGYTAGSLCMGWFRQAPGKEREGVAAIYTGGGSTYYADSVKGRFTISQDNAKNTVYLQMNSLKPEDTAQYYCGAGSREDYCDRGYIYDHWGQGTQVTVSS
B5: AS17049 sdAb (VHH)
VHH: QVKLVESGGGSVQAGGYLRLSCAASGDTNNLNFRGWFRQAPGKEREGVAVITHSGSTYYAESVKGRFTISQDLAKNTMYLQMNSLKPEDTAMYYCAAADVWRISWSFVPELFSYWGQGTQVTVSS
B6: AS17118 sdAb (VHH)
VHH: QVQLVESGGGSVQAGGSLRLSCAGSGFTFNNYAMGWFRQAPGKEREGIAGIWTGGGSTYYADSVKGRFTISEDVAKNTVYLQMDSLKPEDTAMYYCAAERWDYSDWRRLKRGDYNYWGQGTQVTVSS
B7: AS24984 sdAb (VHH)
VHH: QVHLMESGGGSVPSGGSLRLSCAVSGSGYSYSRGCFAWFQQRPGKEREGVAIINMDGHTRYSDSVQGRFIISQDKAKNTLHLQMNTLRPDDTAMYYCAYDRSQCYVLSDRLRLPGTFSDWGQGTQVTVSS
B8: AS25037 sdAb (VHH)
VHH: EVQLAESGGGSVQAGGSLKLSCLASQWISSDCGMAWYRQAPGKERELVSRISSDDTTTYADSVKGRFTISQDSAKNTLYLQMNKLKTEDTGVYYCAAEAKSTITSLCYPLNYWGQGTQVTVSS
B9: AS25064 sdAb (VHH)
VHH: QVQLVESGGGSVQAGGSLRLTCAATGYSWRPDCMGWYRQAAEKEREGVAVIDADGITSYADAAKGRFTISRDNNKITLYLQMLKPDDTGMYVCVVGWRVSSGGNCQFNDYWGQGTQVTVSS
B10: AS25067 sdAb (VHH)
VHH: QVHLMESGGGAVQTGGSLRLSCAVSGISISPDCMGWFRQAPGKKREAVTTIFANTGSARYGDSVKGRFTSSQGNAKNTLYLQMDSVKLDDTGTYYCAARFTGGDCFDHQPLAWRFWGQGTQVTVSS
B11: AS25071 sdAb (VHH)
VHH: EVQLAESGGGSVQSGGSLRLSCAVSGSGYSYSRGCFAWFQQRPGKEREGVAIINSDGHTAYSDSVQGRFIISQDKAKNTLYLQMNSLKPDDTAMYYCAYDRSQCYVLRDRLRLPDTFTDWGQGTQVTVSS
B12: AS06962 sdAb (VHH)
VHH: QVHLVDSGGGLVQPGGSLRLSCAASGSITSRNTMGWYRQVPGKQRELVALIATFVTHYADSVKGRFTISRDNARKMVFLEMNSLQPEDTGAYYCYVDVSPYWGRGTQVTVSS
B13: AS25115 sdAb (VHH)
VHH: QVHLVESGGASVQAGGSLRLSCAATAYTASNYCMGWFRQSPGKEREAVASINDDGVTSYADSVKGRFTISQDSAKKTLYLQMNRLKPEDTAMYYCAATPDGYCYAERLSRWRYEFWGQGTQVTVSS
B14: AS25117 sdAb (VHH)
VHH: EVQLAESGGGSVQAGGSLRLSCVISGTSISPDCMGWFRQAPGKKREAVMSIFTNTGSTRYGDSVKGRFTSSQGNAKNTLYLQMDSLKLDDTATYYCAARYTGGDCFNLEPLAWRFWGQGTQVTVSS
B15: AS25119 sdAb (VHH)
VHH: QVQLVESGGGSVQAGGPLRLTCAATGYSWRPDCMGWYRQAAEKEREGVAVIDADGITSYADAAKGRFTISRDNNNITLYLQMLKPDDTGMYVCVIGWRVSSGGNCQFNDYWGQGTQVTVSS
B16: AS25149 sdAb (VHH)
VHH: QVQLVESGGGSVQSGGSLKLSCAVSGSGYSYSRGCFAWFQQRPGKEREGVAIINSDGHTRYSDSVQGRFIISQDKAKNTLYLQMNSLKPDDAAMYYCAYDRNQCYVLLDRLRLPGTFSDWGQGTQVTVSS
B17: AS25156 sdAb (VHH)
VHH: EVQLVESGGGSVQSGGSLRLSCAVSGSGYSYSRGCFAWFQQRPGKEREGVAIINSDGHTRYSDSVQGRFIISQDKAKNTLYLQMNSLKPDDTAMYYCAYDCSQCYVLRDRLRLPDTFTDWGQGTQVTVSS
B18: AS25164 sdAb (VHH)
VHH: EVQLVESGGGSVQSGGSLRLSCAVSGSGYSYNRGCFAWFQQRPGKEREGVAIINSDGHTTYGDSVQGRFIISQDKAKNTLDLQMNSLKPDDTAMYYCAYDRNQCYVLRDRLRLPDTFTDWGQGTQVTVSS
B19: AS25170 sdAb (VHH)
VHH: QVKLVESGGGLVQSGGSLRLSCAVSGSGYSYSRGCFAWFQQRPGKEREGVAIINMDGHTMYSDLAQGRFIISQDKAKNTLYLQMNSLKPDDTAMYYCAYDRDQCYVLRDRLRLPDTFNDWGQGTQVTVSS
B20: AS25222 sdAb (VHH)
VHH: QIQLVESGGGSVQAGGSLRLSCAVTGISISPDCMGWFRQAPGKKREAVATIFTNTASTRYGDSVKGRFTSSQGNGKNTLYLQMDSLNVDDTATYYCAARYTGGNCFNLEPLAWHFWGQGTQVTVSS
B21: AS25396 sdAb (VHH)
VHH: QVHLMESGGGSVQAGGSLRLSCVVSGISISPDCMGWFRQAPGKKREAVATIFTNTRRTRYGDSVKGRVTSSQGNAKNTLYLKMDNLRHDDTATYYCAARYTGGDCFNLDPLSWRFWGQGTQVTVSS
B22: AS25457 sdAb (VHH)
VHH: QVQLVESGGGSVQAGGSLRLSCAVSGISISPDCMGWFRQAPGKKREAVATIFTNTRSTRYGDSVKGRFTSSQGNAKNTLYLQMDSLKLDDTATYYCAARYTGGDCFNLEPVAWRFWGQGTQVTVSS
B23: AS15090 sdAb (VHH)
VHH: QVQLVESGGGSVQAGGSLRLSCAASGYTYIPNCMAWFRQAPGKEREGVTLIFTGDGTSTYVDSVKGRFTISQDNAKNTVYLQMNSLKPEDTALYYCAAAERCSGSNDRISFWGISYWGQGTQVTVSS
B24: AS25487 sdAb (VHH)
VHH: EVQLVESGGGLVQPGGSLRLSCAASGFTFSVWSMSWVRQAPGEGLEWVSTITGSGAQTYYASSVRGRFTTSRDNAKNTVYLQMNSLKSDDTAVYYCERGNGQTAMEALINPPERPGTQVTVSS
B25: AS25095 sdAb (VHH)
VHH: QVQLVESGGGLMQPGGSLRLSCAASGFTFSSYWMYWVRQAPGKGLEWVSVINRAGDSAWYADSVTGRFTISRDNAKNTVYLQMDSLKPEDTAMYYCAADSRGYGGDWYKLLSDFNYCGQGTQVTVSS
B26: AS25435 sdAb (VHH)
VHH: QVQLVESGGGSVQAGGSLRLSCAATAYTASFYCMGWFRQAPGKEREAVASINDDGVTMYADSVKGQFTISQDSATKTLYLQMNRLKPEDTAMYYCAATPEGYCYAERLSTWRYTFWGQGTQVTVSS
B27: AS15140 sdAb (VHH)
VHH: QVQLVESGGGSVQAGGSLRLSCTASAYTYSNICLGWLRQAPGGGLEAVATIYIADQTSYYADSVKGRFRISKDAAKNAVYLQMSSLRPEDTAMYYCASRYGSTCGEYLADYTSRAQGTQVTVSS
B28: AS15152 sdAb (VHH)
VHH: QMQLVESGGGSVQAGGSLRLSCAVSGYIYNRNFMGWFRQAPGKEREGVAAIYTGGPYTYYTDSVQGRFTISQDNTKNTVYLQMNSLKPEDTAMYYCVSDLSDGTWDQGRWNYWGQGTQVTVSS
B29: AS15156 sdAb (VHH)
VHH: QVQLVESGGGSAQAGGSLRLSCAVSGYIYNRNFMGWFRQVPGKVREGVAAIYTGTERTYYADSVKGRFTISQDNAKNTVYLQMNSLKPEDTAMYYCVADLRDGTWDTGVWNTWGQGTQVTVSS
B30: AS15193 sdAb (VHH)
VHH: QIQLVESGGGSAQAGGSLRLSCVVSGNIYNRNFMGWFRQAPGKVREGVAAIYTGTSRTYYADSVKGRFTISQDNAKNTVYLQMNSLKPEDTAMYYCAADLRDGFWDTGVWNTWGQGTQVTVSS
B31: AS15872 sdAb (VHH)
VHH: QVQLVESGGGLVQPGGSLTLSCAASGFTFSTAAMSWVRQVPEEGLEWVASIDSSGSRTYYAGSVKGRFTISRDNAKNTLYLQLNSLKAEDTAMYYCAKDHMSWLPRGQGTQVTVSS
B32: AS15881 sdAb (VHH)
VHH: QVQLVESGGGSVQAGGSLRLSCAASGFTDSSYCGAWFRQVPGKEREGVAIIDRYGGTMYKDSVKGRFTISKDTAKNILYLQMNSLKLEDTAMYYCAAAEYRGSSCDAESGYWGQGTQVTVSS

The binders below were run against recombinant PD-1 extracellular domain (ECD) protein (human) (UniProt Q15116) (assay: screen of sdAb supernatants: ELISA on PD-1 ECD protein and FACS on PD-1 stable cell line).
In the case of B1, the binding is reported as “binds”. B2 was tested, and the binding was “binds”. B3 was tested, and the binding was “binds”. With B4 the binding was “binds”. B5 was tested, and the binding was “binds”. In the case of B6, the binding is reported as “binds”. B7 was tested, and the binding was “binds”. With B8 the binding was “binds”. In the case of B9, the binding is reported as “binds”. In the case of B10, the binding is reported as “binds”. B11 was tested, and the binding was “binds”. In the case of B12, the binding is reported as “binds”. B13 was tested, and the binding was “binds”. In the case of B14, the binding is reported as “binds”. With B15 the binding was “binds”. For B16, the binding was “binds”. B17 was tested, and the binding was “binds”. B18 was tested, and the binding was “binds”. In the case of B19, the binding is reported as “binds”. For B20, the binding was “binds”. With B21 the binding was “binds”. With B22 the binding was “binds”. B23 was tested, and the binding was “binds”. For B24, the binding was “binds”. For B25, the binding was “binds”. For B26, the binding was “binds”. In the case of B27, the binding is reported as “binds”. B28 was tested, and the binding was “binds”. In the case of B29, the binding is reported as “binds”. For B30, the binding was “binds”. For B31, the binding was “binds”. With B32 the binding was “binds”.

The binders below were run against human PD-1 expressed on cells (human) (UniProt Q15116) (assay: flow cytometry on human PD-1 expressing cells).
With B1 the binding was “binds”. For B12, the binding was “binds”.

The binders below were run against human PD-1 expressed on cells (human) (UniProt Q15116) (assay: flow cytometry (FACS) on CHO cells expressing human PD-1).
In the case of B1, the binding is reported as “binds”. B12 was tested, and the binding was “binds”.
